Test results from patent US20260072046A1 (priority 2015, published 2026).

Details: human

CN1CC[C@]23c4c5ccc(O)c4O[C@H]2[C@@H](O)C=C[C@H]3[C@H]1C5 [morphine]
concentration in oral fluid: 118.97 ng/mL
